# US20160024421A1, “IONIC LIQUIDS CONTAINING QUATERNARY PHOSPHONIUM CATIONS AND CARBOXYLATE ANIONS, AND THEIR USE AS LUBRICANT ADDITIVES” (UT-Battelle, LLC, priority 2014, published 2016)
# Assay: Ball-on-flat reciprocating tribological bench test (wear rate)
# Details: 1.65 wt % IL in PAO vs 1.67 wt % AP in PAO; 100 N, 100° C., 10 Hz, 1000 m; total wear rate (ball and plate)
substance,measurement,value
trihexyltetradecylphosphonium 2-ethylhexanoate [[P66614][C7H15COO]b],wear reduction versus commercial amine-phosphate AW additive,> 56%
